Some of the results follow. Most values lie at the level of the controls, where differences are scatter.
These targets were tested with CN[C@@H]1C[C@H]2O[C@@](C)([C@@H]1OC)n1c3ccccc3c3c4c(c5c6ccccc6n2c5c31)C(=O)NC4 [staurosporine] (assay: log2 fold change of tryptic peptide abundance, ligand vs vehicle (limited proteolysis) (log2 ratio); higher = more trypsin-susceptible (destabilized)). Conditions: ligand concentration: 20 uM; sample: K562 cleared lysate; digestion: 4 min, 22 C (HT-PELSA RT4min, Orbitrap Astral).

Amino acid sequences for entries named in this document (tags omitted). A change or cut given only in a name is not applied to a line headed by its entry.
UniProt Q15027: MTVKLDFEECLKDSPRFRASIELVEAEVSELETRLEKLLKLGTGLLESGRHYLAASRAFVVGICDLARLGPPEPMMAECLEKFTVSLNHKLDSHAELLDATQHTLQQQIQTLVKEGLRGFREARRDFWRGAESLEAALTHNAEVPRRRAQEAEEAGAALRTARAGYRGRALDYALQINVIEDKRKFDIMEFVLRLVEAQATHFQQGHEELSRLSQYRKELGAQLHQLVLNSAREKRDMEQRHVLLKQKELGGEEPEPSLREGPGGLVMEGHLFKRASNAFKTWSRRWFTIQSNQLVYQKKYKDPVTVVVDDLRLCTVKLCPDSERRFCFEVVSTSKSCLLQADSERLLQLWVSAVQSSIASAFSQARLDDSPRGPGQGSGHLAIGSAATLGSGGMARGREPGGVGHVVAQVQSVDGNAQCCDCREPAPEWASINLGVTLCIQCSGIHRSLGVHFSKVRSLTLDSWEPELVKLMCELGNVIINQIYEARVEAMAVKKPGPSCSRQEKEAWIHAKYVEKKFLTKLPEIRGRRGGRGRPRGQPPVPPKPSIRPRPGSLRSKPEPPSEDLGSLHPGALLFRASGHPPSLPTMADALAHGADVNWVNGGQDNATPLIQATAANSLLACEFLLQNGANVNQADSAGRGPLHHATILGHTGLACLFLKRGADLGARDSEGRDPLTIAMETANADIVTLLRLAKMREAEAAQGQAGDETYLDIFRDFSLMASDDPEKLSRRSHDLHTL
UniProt Q14151: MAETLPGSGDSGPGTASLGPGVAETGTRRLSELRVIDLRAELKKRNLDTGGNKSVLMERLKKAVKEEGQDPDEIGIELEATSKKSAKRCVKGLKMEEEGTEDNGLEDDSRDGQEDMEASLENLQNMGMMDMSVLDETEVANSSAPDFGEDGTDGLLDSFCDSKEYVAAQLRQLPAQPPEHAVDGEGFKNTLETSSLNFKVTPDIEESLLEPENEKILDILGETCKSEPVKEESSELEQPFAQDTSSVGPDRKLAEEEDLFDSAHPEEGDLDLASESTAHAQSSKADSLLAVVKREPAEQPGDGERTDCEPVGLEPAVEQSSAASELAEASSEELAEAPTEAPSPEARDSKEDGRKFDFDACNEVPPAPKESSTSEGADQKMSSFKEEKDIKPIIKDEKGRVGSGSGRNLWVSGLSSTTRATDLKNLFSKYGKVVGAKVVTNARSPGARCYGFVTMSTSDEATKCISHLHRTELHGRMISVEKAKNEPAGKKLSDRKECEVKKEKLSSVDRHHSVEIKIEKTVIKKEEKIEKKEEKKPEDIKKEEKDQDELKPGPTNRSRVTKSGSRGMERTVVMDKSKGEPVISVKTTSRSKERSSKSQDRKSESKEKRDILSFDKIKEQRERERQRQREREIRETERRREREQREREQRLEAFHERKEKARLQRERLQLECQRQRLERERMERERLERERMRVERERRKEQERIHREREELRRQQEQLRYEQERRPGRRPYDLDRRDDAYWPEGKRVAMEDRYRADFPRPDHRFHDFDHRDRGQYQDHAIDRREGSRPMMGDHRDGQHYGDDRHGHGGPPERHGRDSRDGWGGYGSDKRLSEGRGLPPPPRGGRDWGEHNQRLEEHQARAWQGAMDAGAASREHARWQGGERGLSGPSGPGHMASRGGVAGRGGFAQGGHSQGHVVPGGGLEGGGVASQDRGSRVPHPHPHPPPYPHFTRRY
UniProt Q14247: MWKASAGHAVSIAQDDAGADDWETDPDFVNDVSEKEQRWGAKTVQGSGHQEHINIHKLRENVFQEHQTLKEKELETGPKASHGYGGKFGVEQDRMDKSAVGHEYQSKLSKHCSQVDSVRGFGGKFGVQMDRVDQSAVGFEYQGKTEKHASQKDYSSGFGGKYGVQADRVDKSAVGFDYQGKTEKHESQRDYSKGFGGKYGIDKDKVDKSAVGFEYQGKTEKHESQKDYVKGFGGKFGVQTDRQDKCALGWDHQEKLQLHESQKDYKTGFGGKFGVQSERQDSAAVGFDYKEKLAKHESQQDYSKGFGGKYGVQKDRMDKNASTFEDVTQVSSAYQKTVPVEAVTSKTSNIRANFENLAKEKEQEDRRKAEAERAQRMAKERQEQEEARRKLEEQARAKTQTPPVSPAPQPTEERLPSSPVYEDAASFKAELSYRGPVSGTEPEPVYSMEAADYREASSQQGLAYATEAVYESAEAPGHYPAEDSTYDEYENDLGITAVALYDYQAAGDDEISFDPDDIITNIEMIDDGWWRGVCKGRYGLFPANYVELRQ
UniProt Q13474: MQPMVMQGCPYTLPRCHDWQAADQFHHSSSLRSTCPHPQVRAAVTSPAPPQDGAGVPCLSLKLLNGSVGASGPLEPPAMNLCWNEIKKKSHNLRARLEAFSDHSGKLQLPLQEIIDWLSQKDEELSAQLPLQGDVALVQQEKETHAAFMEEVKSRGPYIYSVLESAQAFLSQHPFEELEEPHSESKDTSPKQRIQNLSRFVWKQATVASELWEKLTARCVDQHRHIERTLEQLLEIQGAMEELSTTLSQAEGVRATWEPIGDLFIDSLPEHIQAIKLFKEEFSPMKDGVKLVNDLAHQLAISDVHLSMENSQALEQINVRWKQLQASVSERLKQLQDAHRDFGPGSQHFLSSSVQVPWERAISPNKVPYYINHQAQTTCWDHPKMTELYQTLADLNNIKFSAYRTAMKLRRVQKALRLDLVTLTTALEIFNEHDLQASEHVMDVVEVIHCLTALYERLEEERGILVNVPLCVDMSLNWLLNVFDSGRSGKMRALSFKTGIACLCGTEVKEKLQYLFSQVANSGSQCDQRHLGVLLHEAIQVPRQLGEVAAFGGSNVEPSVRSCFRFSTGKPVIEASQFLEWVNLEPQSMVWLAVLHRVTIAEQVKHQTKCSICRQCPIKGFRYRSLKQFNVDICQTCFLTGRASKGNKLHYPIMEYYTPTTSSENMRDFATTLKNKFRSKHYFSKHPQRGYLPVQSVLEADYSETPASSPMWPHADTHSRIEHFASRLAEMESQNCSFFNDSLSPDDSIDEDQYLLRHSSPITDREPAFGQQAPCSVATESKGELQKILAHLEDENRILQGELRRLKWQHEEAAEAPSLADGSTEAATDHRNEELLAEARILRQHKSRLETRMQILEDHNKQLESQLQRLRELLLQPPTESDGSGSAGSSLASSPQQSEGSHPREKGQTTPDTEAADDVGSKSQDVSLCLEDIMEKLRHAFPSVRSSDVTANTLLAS
UniProt Q15025: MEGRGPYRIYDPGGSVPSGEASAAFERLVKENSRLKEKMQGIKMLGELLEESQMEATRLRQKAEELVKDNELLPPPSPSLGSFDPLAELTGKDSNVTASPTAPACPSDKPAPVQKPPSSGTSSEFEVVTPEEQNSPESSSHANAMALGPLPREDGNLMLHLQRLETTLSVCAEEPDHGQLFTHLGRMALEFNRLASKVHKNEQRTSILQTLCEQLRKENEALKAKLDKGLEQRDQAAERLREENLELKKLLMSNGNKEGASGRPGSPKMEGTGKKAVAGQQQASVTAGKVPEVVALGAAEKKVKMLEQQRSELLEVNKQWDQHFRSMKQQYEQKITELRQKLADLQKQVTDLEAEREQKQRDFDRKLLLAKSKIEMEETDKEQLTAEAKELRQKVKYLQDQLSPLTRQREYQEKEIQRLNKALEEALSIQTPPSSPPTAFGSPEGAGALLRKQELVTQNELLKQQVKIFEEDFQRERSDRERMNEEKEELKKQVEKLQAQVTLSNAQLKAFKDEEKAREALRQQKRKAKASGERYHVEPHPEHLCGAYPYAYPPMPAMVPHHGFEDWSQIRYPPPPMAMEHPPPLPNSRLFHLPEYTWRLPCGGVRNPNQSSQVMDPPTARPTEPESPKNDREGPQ
UniProt Q14186: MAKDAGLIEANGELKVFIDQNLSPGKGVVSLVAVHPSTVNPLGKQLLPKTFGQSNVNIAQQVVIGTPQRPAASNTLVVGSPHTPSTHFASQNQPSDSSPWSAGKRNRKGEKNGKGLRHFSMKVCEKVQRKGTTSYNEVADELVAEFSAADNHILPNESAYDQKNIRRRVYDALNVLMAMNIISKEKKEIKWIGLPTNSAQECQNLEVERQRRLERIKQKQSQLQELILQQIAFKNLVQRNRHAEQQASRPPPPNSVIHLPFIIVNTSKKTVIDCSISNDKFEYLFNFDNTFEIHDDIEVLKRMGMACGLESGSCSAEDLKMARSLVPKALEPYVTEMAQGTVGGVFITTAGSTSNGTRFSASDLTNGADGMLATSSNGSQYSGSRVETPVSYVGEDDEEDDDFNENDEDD
UniProt Q13227: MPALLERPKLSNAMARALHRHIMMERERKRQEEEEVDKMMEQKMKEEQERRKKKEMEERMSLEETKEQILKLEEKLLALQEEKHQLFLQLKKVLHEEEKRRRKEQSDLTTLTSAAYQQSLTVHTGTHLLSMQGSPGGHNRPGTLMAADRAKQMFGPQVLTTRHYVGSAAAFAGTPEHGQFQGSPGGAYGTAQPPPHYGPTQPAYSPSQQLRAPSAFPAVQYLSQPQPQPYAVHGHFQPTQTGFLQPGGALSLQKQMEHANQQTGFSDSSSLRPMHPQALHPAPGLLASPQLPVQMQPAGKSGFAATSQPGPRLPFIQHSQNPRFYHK

Target | log2 fold change
ACAP1 (peptide sequence: AQEAEEAGAALR, peptide start residue: 149) (UniProt Q15027) | 0.375
SAFB2 (peptide sequence: VTPDIEESLLEPENEK, peptide start residue: 200) (UniProt Q14151) | 0.197
CTTN (peptide sequence: FGVQMDR, peptide start residue: 125) (UniProt Q14247) | -0.381
UniProt Q13474 (peptide sequence: MQILEDHNK, peptide start residue: 3332) | 0.0203
TNIP1 (peptide sequence: SELLEVNK, peptide start residue: 311) (UniProt Q15025) | 0.285
PWP1 (peptide sequence: IWDILGDRPSLVHSR, peptide start residue: 412) (UniProt Q13610) | 0.491
TFDP1 (peptide sequence: VFIDQNLSPGK, peptide start residue: 16) (UniProt Q14186) | 0.105
GPS2 (peptide sequence: HQLFLQLK, peptide start residue: 84) (UniProt Q13227) | 0.557

— the supplement of paper PMC12819154, “High-throughput peptide-centric local stability assay extends protein–ligand identification to membrane proteins, tissues and bacteria” (Nature Structural & Molecular Biology, 2025)
